Data on 29 targets can be found in the supplement of paper PMC12819154, “High-throughput peptide-centric local stability assay extends protein–ligand identification to membrane proteins, tissues and bacteria” (Nature Structural & Molecular Biology, 2025).

The chains behind the UniProt entries cited, without tags or fusion partners. Where a name states a change or a piece, a line headed by the entry shows the natural chain unless it says otherwise.
UniProt Q9NUG6, whole entry: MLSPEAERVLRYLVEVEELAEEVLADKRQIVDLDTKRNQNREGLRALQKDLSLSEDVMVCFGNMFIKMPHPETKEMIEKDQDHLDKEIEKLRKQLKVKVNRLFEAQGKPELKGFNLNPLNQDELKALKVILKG
UniProt Q9NSY1, whole entry, looked up: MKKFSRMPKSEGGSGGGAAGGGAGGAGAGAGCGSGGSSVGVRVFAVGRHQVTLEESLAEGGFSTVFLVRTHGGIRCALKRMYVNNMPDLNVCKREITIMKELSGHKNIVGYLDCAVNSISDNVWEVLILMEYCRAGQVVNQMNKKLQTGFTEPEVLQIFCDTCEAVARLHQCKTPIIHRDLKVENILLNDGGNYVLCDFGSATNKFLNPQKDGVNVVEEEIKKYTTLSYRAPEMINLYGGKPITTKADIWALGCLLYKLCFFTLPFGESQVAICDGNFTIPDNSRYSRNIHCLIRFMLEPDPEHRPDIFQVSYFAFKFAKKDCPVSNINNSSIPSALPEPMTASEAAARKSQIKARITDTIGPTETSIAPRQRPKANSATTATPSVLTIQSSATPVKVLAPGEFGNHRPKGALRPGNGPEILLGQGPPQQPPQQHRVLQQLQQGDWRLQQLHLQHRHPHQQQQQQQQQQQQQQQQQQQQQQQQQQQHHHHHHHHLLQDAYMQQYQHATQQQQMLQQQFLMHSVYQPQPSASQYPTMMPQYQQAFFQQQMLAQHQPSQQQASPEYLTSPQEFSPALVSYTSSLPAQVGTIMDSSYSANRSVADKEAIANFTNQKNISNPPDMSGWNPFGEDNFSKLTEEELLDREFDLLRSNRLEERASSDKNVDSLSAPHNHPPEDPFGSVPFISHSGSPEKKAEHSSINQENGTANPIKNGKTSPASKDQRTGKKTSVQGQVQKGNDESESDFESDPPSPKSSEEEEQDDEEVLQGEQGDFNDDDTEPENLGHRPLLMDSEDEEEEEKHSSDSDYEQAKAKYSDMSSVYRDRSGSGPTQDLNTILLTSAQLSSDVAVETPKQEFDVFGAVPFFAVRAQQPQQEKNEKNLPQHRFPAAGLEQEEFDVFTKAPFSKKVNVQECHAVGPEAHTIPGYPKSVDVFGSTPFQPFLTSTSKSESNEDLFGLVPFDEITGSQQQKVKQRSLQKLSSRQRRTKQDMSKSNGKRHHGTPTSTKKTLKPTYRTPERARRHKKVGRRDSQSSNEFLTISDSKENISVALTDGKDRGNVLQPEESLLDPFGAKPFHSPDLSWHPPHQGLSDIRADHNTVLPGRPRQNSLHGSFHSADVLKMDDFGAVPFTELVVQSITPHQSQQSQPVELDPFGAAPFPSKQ
UniProt Q9NUP1: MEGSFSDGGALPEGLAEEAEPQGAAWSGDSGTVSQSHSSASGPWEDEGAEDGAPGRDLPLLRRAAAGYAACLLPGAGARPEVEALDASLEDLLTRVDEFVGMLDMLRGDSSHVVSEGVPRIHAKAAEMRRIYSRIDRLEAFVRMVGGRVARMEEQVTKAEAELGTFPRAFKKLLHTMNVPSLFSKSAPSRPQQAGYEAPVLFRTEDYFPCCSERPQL
UniProt Q9NQC3: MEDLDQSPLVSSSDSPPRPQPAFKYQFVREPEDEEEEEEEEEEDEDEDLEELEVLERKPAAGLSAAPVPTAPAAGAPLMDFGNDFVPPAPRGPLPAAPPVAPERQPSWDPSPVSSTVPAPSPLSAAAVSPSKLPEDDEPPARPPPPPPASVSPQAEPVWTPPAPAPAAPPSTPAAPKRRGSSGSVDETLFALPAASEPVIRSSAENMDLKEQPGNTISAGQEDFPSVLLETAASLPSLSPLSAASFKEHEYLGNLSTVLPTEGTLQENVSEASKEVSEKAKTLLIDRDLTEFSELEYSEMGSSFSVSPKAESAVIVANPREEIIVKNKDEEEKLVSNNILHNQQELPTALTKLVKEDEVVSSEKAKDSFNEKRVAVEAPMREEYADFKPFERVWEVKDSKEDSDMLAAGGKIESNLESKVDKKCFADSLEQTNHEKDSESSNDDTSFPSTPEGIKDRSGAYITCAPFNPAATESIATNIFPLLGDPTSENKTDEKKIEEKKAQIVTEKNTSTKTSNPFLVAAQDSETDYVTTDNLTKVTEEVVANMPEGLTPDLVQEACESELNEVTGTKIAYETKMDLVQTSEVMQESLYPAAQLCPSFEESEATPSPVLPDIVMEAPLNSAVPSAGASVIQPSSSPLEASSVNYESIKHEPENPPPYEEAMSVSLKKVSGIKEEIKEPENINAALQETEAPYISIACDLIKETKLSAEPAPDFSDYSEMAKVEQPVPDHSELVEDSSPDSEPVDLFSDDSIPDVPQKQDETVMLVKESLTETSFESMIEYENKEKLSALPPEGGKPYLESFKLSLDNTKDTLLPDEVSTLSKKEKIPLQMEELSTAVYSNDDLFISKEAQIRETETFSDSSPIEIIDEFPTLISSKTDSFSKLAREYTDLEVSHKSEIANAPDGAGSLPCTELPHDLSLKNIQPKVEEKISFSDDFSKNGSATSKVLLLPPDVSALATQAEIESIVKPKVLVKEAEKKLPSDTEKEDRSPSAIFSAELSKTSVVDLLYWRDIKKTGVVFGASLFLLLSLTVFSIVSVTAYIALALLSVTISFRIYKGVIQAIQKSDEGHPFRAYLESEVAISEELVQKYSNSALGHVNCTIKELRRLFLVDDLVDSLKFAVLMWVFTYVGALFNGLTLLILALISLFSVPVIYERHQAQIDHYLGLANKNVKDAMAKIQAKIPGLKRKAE
UniProt Q9NP64: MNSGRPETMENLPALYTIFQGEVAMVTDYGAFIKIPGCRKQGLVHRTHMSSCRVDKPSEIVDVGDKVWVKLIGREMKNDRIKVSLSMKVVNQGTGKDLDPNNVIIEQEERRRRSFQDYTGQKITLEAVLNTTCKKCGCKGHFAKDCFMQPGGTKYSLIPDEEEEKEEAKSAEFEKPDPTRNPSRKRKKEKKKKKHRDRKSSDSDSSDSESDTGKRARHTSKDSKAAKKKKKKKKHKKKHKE
UniProt Q9NUJ3: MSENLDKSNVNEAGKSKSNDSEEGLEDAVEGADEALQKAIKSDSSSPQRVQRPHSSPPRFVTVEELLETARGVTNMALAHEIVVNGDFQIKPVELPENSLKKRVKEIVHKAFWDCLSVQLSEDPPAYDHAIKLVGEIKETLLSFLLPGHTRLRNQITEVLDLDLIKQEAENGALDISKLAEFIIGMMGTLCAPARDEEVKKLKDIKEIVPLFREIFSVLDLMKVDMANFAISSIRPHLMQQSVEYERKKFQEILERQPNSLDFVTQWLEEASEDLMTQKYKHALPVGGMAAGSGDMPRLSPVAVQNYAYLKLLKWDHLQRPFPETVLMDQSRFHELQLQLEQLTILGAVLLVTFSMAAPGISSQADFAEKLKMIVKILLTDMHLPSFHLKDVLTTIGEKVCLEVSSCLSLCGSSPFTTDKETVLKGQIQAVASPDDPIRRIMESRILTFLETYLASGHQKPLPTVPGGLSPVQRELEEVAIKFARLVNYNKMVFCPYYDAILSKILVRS
UniProt Q9NPF4: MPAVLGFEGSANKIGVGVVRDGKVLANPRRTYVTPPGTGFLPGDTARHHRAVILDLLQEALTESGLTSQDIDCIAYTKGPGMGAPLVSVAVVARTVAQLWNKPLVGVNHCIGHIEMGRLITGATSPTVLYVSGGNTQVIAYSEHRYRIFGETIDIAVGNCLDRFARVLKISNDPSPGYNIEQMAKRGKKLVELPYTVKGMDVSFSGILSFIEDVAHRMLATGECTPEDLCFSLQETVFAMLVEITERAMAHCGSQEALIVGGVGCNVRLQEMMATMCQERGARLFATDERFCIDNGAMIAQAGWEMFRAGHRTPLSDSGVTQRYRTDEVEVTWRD
UniProt Q9NUK0: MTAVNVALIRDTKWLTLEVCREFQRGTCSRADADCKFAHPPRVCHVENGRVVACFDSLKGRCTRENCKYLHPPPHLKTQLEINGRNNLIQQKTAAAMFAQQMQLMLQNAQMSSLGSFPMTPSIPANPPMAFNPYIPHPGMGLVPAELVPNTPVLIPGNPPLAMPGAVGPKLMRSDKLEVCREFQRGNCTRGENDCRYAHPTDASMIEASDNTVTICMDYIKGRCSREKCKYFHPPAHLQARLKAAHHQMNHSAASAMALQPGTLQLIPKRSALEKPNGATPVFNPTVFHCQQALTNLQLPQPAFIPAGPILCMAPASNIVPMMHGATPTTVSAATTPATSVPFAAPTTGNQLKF
UniProt Q9NR33: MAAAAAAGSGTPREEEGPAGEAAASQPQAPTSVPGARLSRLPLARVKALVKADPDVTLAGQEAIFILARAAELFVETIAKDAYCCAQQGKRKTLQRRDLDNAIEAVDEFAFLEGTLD
UniProt Q9NS23: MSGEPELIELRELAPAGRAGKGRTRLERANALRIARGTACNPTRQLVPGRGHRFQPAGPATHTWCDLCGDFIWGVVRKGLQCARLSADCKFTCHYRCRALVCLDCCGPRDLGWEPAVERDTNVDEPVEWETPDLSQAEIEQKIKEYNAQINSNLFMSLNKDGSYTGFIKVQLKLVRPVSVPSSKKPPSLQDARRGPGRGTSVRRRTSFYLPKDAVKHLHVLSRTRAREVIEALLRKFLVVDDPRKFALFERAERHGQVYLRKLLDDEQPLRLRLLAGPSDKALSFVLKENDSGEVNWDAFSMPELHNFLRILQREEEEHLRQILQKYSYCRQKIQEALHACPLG
UniProt Q9NRW3: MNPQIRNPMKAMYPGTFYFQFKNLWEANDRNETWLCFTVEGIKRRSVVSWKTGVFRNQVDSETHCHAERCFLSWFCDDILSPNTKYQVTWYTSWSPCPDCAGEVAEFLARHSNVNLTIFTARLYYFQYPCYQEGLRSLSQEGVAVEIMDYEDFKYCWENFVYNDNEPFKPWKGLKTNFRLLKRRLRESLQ
UniProt Q9NV31: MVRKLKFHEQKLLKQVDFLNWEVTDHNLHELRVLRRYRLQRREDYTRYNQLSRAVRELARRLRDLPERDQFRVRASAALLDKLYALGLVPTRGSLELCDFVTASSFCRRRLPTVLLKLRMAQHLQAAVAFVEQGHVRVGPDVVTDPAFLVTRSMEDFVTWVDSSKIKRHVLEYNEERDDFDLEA
UniProt Q9NS91, whole entry: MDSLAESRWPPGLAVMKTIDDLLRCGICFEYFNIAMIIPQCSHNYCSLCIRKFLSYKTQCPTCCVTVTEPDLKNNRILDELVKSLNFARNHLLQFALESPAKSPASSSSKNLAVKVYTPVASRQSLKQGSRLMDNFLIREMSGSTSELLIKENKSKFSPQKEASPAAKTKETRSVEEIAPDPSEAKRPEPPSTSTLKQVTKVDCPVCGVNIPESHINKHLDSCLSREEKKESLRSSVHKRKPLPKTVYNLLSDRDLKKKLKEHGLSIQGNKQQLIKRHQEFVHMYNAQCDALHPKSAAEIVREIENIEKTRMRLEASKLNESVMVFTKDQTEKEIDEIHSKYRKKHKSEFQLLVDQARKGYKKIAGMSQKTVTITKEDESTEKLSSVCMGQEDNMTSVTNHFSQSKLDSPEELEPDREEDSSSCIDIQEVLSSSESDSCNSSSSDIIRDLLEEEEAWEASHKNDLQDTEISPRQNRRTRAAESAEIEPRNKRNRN
UniProt Q9HCM7, whole entry: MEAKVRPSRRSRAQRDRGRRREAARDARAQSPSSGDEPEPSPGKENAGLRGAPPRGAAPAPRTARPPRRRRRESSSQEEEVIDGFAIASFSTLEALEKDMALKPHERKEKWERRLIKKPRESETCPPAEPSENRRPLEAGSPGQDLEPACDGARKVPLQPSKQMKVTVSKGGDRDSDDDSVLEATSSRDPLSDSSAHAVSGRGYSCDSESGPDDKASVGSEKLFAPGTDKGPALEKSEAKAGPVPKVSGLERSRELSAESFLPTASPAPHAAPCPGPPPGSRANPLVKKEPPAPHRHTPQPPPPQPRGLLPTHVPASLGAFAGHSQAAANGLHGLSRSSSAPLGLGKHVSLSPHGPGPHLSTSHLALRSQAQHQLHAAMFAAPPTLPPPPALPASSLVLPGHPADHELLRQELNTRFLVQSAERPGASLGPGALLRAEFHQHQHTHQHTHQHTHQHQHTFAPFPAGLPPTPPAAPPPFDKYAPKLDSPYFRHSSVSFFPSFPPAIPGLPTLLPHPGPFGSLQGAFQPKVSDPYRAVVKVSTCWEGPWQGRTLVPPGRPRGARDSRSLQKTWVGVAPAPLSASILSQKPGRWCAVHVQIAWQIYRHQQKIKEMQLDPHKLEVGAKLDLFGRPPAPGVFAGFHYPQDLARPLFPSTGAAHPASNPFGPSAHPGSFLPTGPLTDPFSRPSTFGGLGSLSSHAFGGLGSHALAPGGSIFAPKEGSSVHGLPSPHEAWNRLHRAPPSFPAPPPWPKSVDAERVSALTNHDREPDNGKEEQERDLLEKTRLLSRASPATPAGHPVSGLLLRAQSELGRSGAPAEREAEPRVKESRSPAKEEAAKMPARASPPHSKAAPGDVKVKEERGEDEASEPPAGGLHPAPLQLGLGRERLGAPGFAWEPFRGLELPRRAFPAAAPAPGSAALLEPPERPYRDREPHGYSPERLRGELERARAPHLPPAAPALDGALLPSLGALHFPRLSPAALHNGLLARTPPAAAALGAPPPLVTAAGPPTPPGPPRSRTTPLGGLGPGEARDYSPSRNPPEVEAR

This is one part of the list. Most values lie at the level of the controls, where differences are scatter.

Compound in the assay: Cc1nc(Nc2ncc(C(=O)Nc3c(C)cccc3Cl)s2)cc(N2CCN(CCO)CC2)n1 [dasatinib]
Description: log2 fold change of tryptic peptide abundance, ligand vs vehicle (limited proteolysis) (log2 ratio); higher = more trypsin-susceptible (destabilized). As to conditions: ligand concentration: 5 uM; sample: K562 cleared lysate.
Regarding “RLIM (peptide sequence: RTFSRSER, peptide start residue: 365) (UniProt Q9NVW2)”, the log2 fold change is -0.337. In the case of “JADE2 (peptide sequence: TDLITAMK, peptide start residue: 50) (UniProt Q9NQC1)”, the log2 fold change was -0.0493. The figure for “PCMTD2 (peptide sequence: VGGILVMPLEEK, peptide start residue: 183) (UniProt Q9NV79)” is 0.257; for “PDRG1 (peptide sequence: LFEAQGKPELK, peptide start residue: 102) (UniProt Q9NUG6)” it is -0.417; for “XAB2 (peptide sequence: HGNEDTIKEMLR, peptide start residue: 714) (UniProt Q9HCS7)” it is 0.369. The figure for “UniProt Q9NSY1 (peptide sequence: FLNPQKDGVNVVEEEIK, peptide start residue: 206)” is -0.378. In the case of “UniProt Q9NUP1 (peptide sequence: AEAELGTFPR, peptide start residue: 159)” it was -0.18; in that of “UniProt Q9NQ88 (peptide sequence: CSLPATLSR, peptide start residue: 215)”, 0.0558. Regarding “RTN4 (peptide sequence: VAVEAPMREEYADFKPFER, peptide start residue: 374) (UniProt Q9NQC3)”, the log2 fold change is 0.126. The figure for “NLE1 (peptide sequence: IVASASFDK, peptide start residue: 386) (UniProt Q9NVX2)” is -0.255.

As for “DMAP1 (peptide sequence: EAEKPAVPETAGIK, peptide start residue: 298) (UniProt Q9NPF5)”, the log2 fold change is -0.353. In the case of “ZCCHC17 (peptide sequence: DCFMQPGGTK, peptide start residue: 145) (UniProt Q9NP64)” it was -0.422. As to “UniProt Q9HCM9 (peptide sequence: DFPCPVCRK, peptide start residue: 63)”, the log2 fold change is -0.107. The figure for “UniProt Q9NUJ3 (peptide sequence: HALPVGGMAAGSGDMPR, peptide start residue: 282)” is 0.0361; for “POLR3B (peptide sequence: VILIQEQLSK, peptide start residue: 177) (UniProt Q9NW08)” it is -0.426. The figure for “UniProt Q9NV56 (peptide sequence: VTDKVLTANSNPSSPSAAKR, peptide start residue: 182)” is -0.352; for “UniProt Q9NP50 (peptide sequence: MFGFHKPK, peptide start residue: 1)” it is 0.343. In the case of “OSGEP (peptide sequence: LVELPYTVK, peptide start residue: 190) (UniProt Q9NPF4)” it was -0.247; in that of “UniProt Q9NUK0 (peptide sequence: YLHPPPHLK, peptide start residue: 68)”, 0.059. As to “POLE4 (peptide sequence: AAELFVETIAK, peptide start residue: 70) (UniProt Q9NR33)”, the log2 fold change worked out at 0.0279. The figure for “RASSF1 (peptide sequence: ALVCLDCCGPR, peptide start residue: 99) (UniProt Q9NS23)” is 0.0548. The figure for “APOBEC3C (peptide sequence: MNPQIRNPMK, peptide start residue: 1) (UniProt Q9NRW3)” is 0.0608; for “IMP3 (peptide sequence: QVDFLNWEVTDHNLHELR, peptide start residue: 15) (UniProt Q9NV31)” it is 0.117. The figure for “UniProt Q9NPJ3 (peptide sequence: ITLVSAAPGK, peptide start residue: 28)” is -0.128; for “RAD18 (peptide sequence: TVTITKEDESTEK, peptide start residue: 371) (UniProt Q9NS91)” it is 0.113. Consider “UniProt Q9NQB0 (peptide sequence: QLHMQLYPGWSAR, peptide start residue: 357)”, for which the log2 fold change was -0.107.

In the case of “UniProt Q9HCM7 (peptide sequence: TTPLGGLGPGEAR, peptide start residue: 1019)”, the log2 fold change was -0.217.

Consider “RGS18 (peptide sequence: ETRVSPEEAVK, peptide start residue: 72) (UniProt Q9NS28)”, for which the log2 fold change came to 0.0143. The figure for “DNAJC17 (peptide sequence: DYESLVMMR, peptide start residue: 272) (UniProt Q9NVM6)” is -0.142.
